Results reported in patent publication US6884776B1, “Antimicrobial peptides derived from ubiquicidine” (priority 1997, dated 2005).
At least one peptide structure holds a part that was inferred or is arguable (an end, a ring closure or a residue). Where no end group is shown, it is not given here.

Tests used:
Assay type in all cases: cell-based
[1] = system: micro-organisms; assay: growth-killing test / in vitro antimicrobial action (IC 99%)
From the text: Peptide fragments derived from ubiquicidine comprise a preferably continuous series of at least 3, preferably at least 8 amino acids from the amino acid sequence of ubiquicidine as shown in FIG. 1. For an average skilled person it is simple to ascertain whether a peptide fragment with a series of preferably continuous amino acids chosen from the amino acid sequence of ubiquicidine does actually have antimicrobial activity and thus meets the requirements of the invention. A simple standard test for determining antimicrobial activity is for instance the universally known growth-killing test, i.e. determining of the concentration of an antimicrobial agent which kills 99% of the micro-organisms (IC 99%). Designated by “peptide (fragments)” in this application are therefore all amino acid chains which are smaller than the ubiquicidine itself, but the amino acid sequence of which is to be found, preferably continuously, in the ubiquicidine. The length of such peptide (fragments) can vary from 3 to 58 amino acids, wherein possible extra amino acids added as modification are not included.
Different techniques were used to test for the antimicrobial activity of ubiquicidine and peptides derived therefrom.

[2] = system: Mycobacterium fortuitum; assay: antimicrobial effect on Mycobacterium fortuitum, living mycobacteria over time
[3] = system: Herpes Simplex Virus (HSV); assay: antimicrobial effect on HSV, cytopathogenic effect on Vero cells, virus titre; details: HSV incubated 60 minutes at 37° C. with increasing concentrations, FIG. 3

| Sequence | IC 99% (concentration which kills 99% of the micro-organisms) [1] | effect on living mycobacteria ([2]; 14 μM or 52 μM, single dose, FIG. 4) | effect on living mycobacteria ([2]; repeated administration at 3 and 7 hours after the first dose) | effect on virus titre [3] |
| --- | --- | --- | --- | --- |
| KVAKQEKKKKKTGRAKRR [ubiquicidine (18-35)] | around 1 μM | kills M. fortuitum for a period of 3 hours, whereafter the peptide then shows a bacteriostatic effect | practically complete elimination of the mycobacteria | decrease in the virus titre |
| KVHGSLARAGKVRGQTPK [ubiquicidine (1-18)] | around 1 μM |  |  |  |
